{"source": "PubChem BioAssay AID1224826 – NIAID, 2016", "test": "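Genes that change LPS-induced Tnf promoter activity in mouse macrophages when knocked down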 (primary screen)", "system": "RAW264.7 G9 macrophages from mouse bearing reporters for p65 (GFP) and the Tnf promoter (mCherry)", "reagent": "siRNA pool against mouse genes, 100 nM", "duration": "16 h of LPS stimulation, after 2 days of siRNA transfection", "conditions": "bacterial lipopolysaccharide (Salmonella minnesota R595), 10 ng/ml", "measured": "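Imaged Tnf reporter mCherry in nuclei, minus background, normalised per plate to the median and expressed as robust z-scores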", "direction": "Tnf reporter robust z-score: higher = stronger Tnf promoter reporter signal after LPS", "active means": "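Called active when robust z-score is at most -1.3, matching the median of the Tlr4 knock-down control, or over 3; control wells and wells with under 50 cells never active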", "meaning of the calls": "active = Tnf reporter clearly lowered or raised; inactive = no clear change in Tnf reporter", "note": "The whole screen tested about 17,000 reagents; shown is a random part of them. About 1,110 of all reagents (6.6%) were called active. 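Active means lowered or raised reporter signal; replicate intensities are raw and not normalised per plate.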 Unmarked entries are inactive. Further read-outs or replicates are left out here."}
{"gene symbol": "Tor1aip1 (GeneID 208263)", "PubChem SID": "SID315477529", "Tnf reporter robust z-score": -0.64, "fewer than 50 cells in well": "enough cells in well"}
{"gene symbol": "Rims3 (GeneID 242662)", "PubChem SID": "SID315479637", "Tnf reporter robust z-score": 2.29, "fewer than 50 cells in well": "enough cells in well"}
{"gene symbol": "Dlg3 (GeneID 53310)", "PubChem SID": "SID315471031", "Tnf reporter robust z-score": -0.05, "fewer than 50 cells in well": "enough cells in well"}
{"gene symbol": "Ccn3 (GeneID 18133)", "PubChem SID": "SID315468215", "Tnf reporter robust z-score": 0.75, "fewer than 50 cells in well": "enough cells in well"}
{"gene symbol": "Ltap1 (GeneID 99650)", "PubChem SID": "SID315476188", "Tnf reporter robust z-score": 0, "fewer than 50 cells in well": "enough cells in well"}
{"gene symbol": "Or2ah1 (GeneID 258579)", "PubChem SID": "SID315480243", "Tnf reporter robust z-score": 0.01, "fewer than 50 cells in well": "enough cells in well"}
{"gene symbol": "Lyrm1 (GeneID 73919)", "PubChem SID": "SID315474803", "fewer than 50 cells in well": "fewer than 50 cells per well; well left out of calls"}

Targets above whose gene name begins with L or l (2):
{"gene symbol": "Ltap1 (GeneID 99650)", "PubChem SID": "SID315476188", "Tnf reporter robust z-score": 0, "fewer than 50 cells in well": "enough cells in well"}
{"gene symbol": "Lyrm1 (GeneID 73919)", "PubChem SID": "SID315474803", "fewer than 50 cells in well": "fewer than 50 cells per well; well left out of calls"}

The results go on.
{"gene symbol": "Vbp1 (GeneID 22327)", "PubChem SID": "SID315469986", "Tnf reporter robust z-score": 0.08, "fewer than 50 cells in well": "enough cells in well"}
{"gene symbol": "Laptm4b (GeneID 114128)", "PubChem SID": "SID315476996", "Tnf reporter robust z-score": -0.55, "fewer than 50 cells in well": "enough cells in well"}
{"gene symbol": "Ppm1b (GeneID 19043)", "PubChem SID": "SID315468658", "Tnf reporter robust z-score": 0.55, "fewer than 50 cells in well": "enough cells in well"}
{"gene symbol": "Tyw1 (GeneID 100929)", "PubChem SID": "SID315476254", "Tnf reporter robust z-score": "4.6 (active)", "fewer than 50 cells in well": "enough cells in well"}
{"gene symbol": "Rps28 (GeneID 54127)", "PubChem SID": "SID315471151", "fewer than 50 cells in well": "fewer than 50 cells per well; well left out of calls"}
{"gene symbol": "Plek2 (GeneID 27260)", "PubChem SID": "SID315470557", "Tnf reporter robust z-score": -0.1, "fewer than 50 cells in well": "enough cells in well"}
{"gene symbol": "Cfap69 (GeneID 207686)", "PubChem SID": "SID315477493", "Tnf reporter robust z-score": "-1.43 (active)", "fewer than 50 cells in well": "enough cells in well"}
{"gene symbol": "Cdc73 (GeneID 214498)", "PubChem SID": "SID315477864", "Tnf reporter robust z-score": -0.79, "fewer than 50 cells in well": "enough cells in well"}
{"gene symbol": "Armc8 (GeneID 74125)", "PubChem SID": "SID315474858", "Tnf reporter robust z-score": -0.22, "fewer than 50 cells in well": "enough cells in well"}
{"gene symbol": "Slc35e1 (GeneID 270066)", "PubChem SID": "SID315480911", "Tnf reporter robust z-score": 0.11, "fewer than 50 cells in well": "enough cells in well"}
{"gene symbol": "Gdf7 (GeneID 238057)", "PubChem SID": "SID315479384", "Tnf reporter robust z-score": -0.23, "fewer than 50 cells in well": "enough cells in well"}
{"gene symbol": "Fbxl21 (GeneID 213311)", "PubChem SID": "SID315477793", "Tnf reporter robust z-score": 1.89, "fewer than 50 cells in well": "enough cells in well"}
{"gene symbol": "Alpk2 (GeneID 225638)", "PubChem SID": "SID315478428", "Tnf reporter robust z-score": 0.61, "fewer than 50 cells in well": "enough cells in well"}
{"gene symbol": "Hs6st2 (GeneID 50786)", "PubChem SID": "SID315470848", "Tnf reporter robust z-score": 0.4, "fewer than 50 cells in well": "enough cells in well"}
